Where two headings read alike, the source gives them in different places. This is one part of the list.

In this assay the test system is T1, CTL2-GFP (C. trachomatis L2/434/Bu, GFP-expressing).
T1 construct: L2/434/Bu, GFP-expressing
Also noted: species or system HeLa; Intracellular C. trachomatis growth in HeLa cells, bulk GFP fluorescence relative to DMSO. The conditions noted are these: bulk GFP, single well, 28.5 h, 10 µM, inhibitor.

With `Clc1ccc(COc2nccnc2OC2CCN(CC3CC3)CC2)cc1Cl` [CBK083123T], under “Bulk GFP fluorescence”, the “% of control remaining” value stood at 85.3083%.

Consider `CC1CCc2c(sc(NC(=O)c3cccs3)c2C(=O)N(C)C)C1` (stereo not drawn) [CBK307100], for which the “% of control remaining” value turned out to be 126.362%.

Take `CC(C)c1cc(C(=O)N(CCO)CC2CC3C=CC2C3)n(C)n1` (stereo not drawn) [CBK282164]: the “% of control remaining” value was found to be 115.306%.

Turning to `Cc1ncsc1C(=O)N1CCN(Cc2ccco2)C[C@@H]1C(C)C` [CBK285486], the “% of control remaining” value was 103.389%.

As to `CC1CCCC(C)N1c1nn(C)c(=O)[nH]1` (stereo not drawn) [CBK019114], the “% of control remaining” value was determined as 127.33%.

With `O=C(CNC(=O)c1ccccc1)OCC(=O)c1ccc(Cl)c(Cl)c1` [CBK261611], the “% of control remaining” value was 102.825%.

In the case of `O=C1N[C@]2(CCc3ccccc31)CN(Cc1ccsc1)C[C@H]2CO` [CBK284793], the “% of control remaining” value was 107.698%.

Turning to `COc1ccc(Oc2nccnc2N2CCN(CCc3ccccn3)CC2)cc1OC` [CBK083067T], the “% of control remaining” value amounted to 111.578%.

Regarding `Cc1[nH]c2ccc(CNC(=O)Cn3ccnc3C(C)C)cc2c1C` [CBK281540], the “% of control remaining” value turned out to be 106.241%.

On to `CCN(CC(=O)NCc1ccc(F)cc1)S(=O)(=O)c1c(C)n[nH]c1C` [CBK306074], for which the “% of control remaining” value worked out at 129.609%.

Turning to `Clc1ccc(COc2nccnc2OCCOc2ccccc2)cc1Cl` [CBK161853], the “% of control remaining” value was determined as 108.078%.

With `CCCCOc1ccc(C(=O)N/C(=C/c2ccc(OC)cc2)C(=O)O)cc1` [CBK300490], the “% of control remaining” value was determined as 147.301%.

For `CCOC(=O)C1CCN(C(=O)c2c(-c3ccccc3)noc2C)CC1` [CBK158704], the “% of control remaining” value was determined as 122.56%.

For the molecule `Cc1ccc(C)c(OCC(=O)Nc2ccccc2C(=O)N2CCN(C)CC2)c1` [CBK269924], the “% of control remaining” value turned out to be 111.939%.

For the molecule `COc1cc(CNC(C)c2ccccc2)ccc1OCC(N)=O` (stereo not drawn) [CBK269982C], the “% of control remaining” value is given as 141.358%.

With `Cn1ncc2c1CCCN(C(=O)Cc1ccc(Cl)cc1)C2` [CBK285231], the “% of control remaining” value amounted to 122.662%.

On to `O=C(N[C@@H](Cn1cc(F)c(=O)[nH]c1=O)C(=O)O)C1CCCC1` [CBK289660], for which the “% of control remaining” value turned out to be 108.928%.

Turning to `CC(=O)Nc1ccc(CNC(=O)c2cccnc2OCC(F)(F)F)cc1` [CBK305682], the “% of control remaining” value came to 92.8295%.

`Cc1c(C(=O)NC(=S)Nc2ccc(O)c(-c3nc4ccccc4s3)c2)oc2ccccc12` [CBK264223]: the “% of control remaining” value was 114.262%.

As to `COCCN1C(=O)C2(CC(=O)N(CC3CCCCC3)C2=O)c2ccccc21` (stereo not drawn) [CBK075355], the “% of control remaining” value is 100.349%.

With `COc1ccc(C(=O)N2CCC3(CCCN(CCCn4c(=O)[nH]c5ccccc54)C3)C2)cc1OC` (stereo not drawn) [CBK132856], the “% of control remaining” value was found to be 135.328%.

For the molecule `Cc1ccc(C(=O)Nc2cccc(-n3c(C)nc4ccccc4c3=O)c2)cc1` [CBK287725], the “% of control remaining” value amounted to 118.345%.

In the case of `COc1ccc(C)c2sc(NC(=O)c3sc(C)nc3C)nc12` [CBK287401], the “% of control remaining” value amounted to 172.681%.

In the case of `CSCC1CCCN(C(=O)c2cc3ncc(CCO)cn3n2)C1` (stereo not drawn) [CBK307256], the “% of control remaining” value is listed as 149.527%.

`Cn1ncc(Cl)c1C1CCCCCN1C(=O)c1cccnc1` (stereo not drawn) [CBK285146]: the “% of control remaining” value is given as 132.91%.

For the molecule `Cc1ccc(C(=O)N(Cc2nc(-c3ccc(Cl)cc3)no2)C(C)C)cc1[N+](=O)[O-]` [CBK268422], the “% of control remaining” value was found to be 108.604%.

In the case of `Brc1ccc(CSc2ncn[nH]2)cc1` [CBK027819], the “% of control remaining” value stood at 129.493%.

As for `Cc1[nH]c2c(C)ccc(C)c2c1CC(=O)N1[C@@H](c2ccccc2F)C[C@@H]2NC(=O)CCC[C@H]21` [CBK286011], the “% of control remaining” value is 133.261%.

Turning to `Cc1oc2ccc(NS(=O)(=O)c3ccccc3)cc2c1C(=O)O` [CBK287071], the “% of control remaining” value came out at 108.111%.

Regarding `CC(=O)N1CCN(c2ccc(Oc3ncc(C(F)(F)F)cc3Cl)cc2)CC1` [CBK161650], the “% of control remaining” value is 93.776%.

On to `COc1ccc(S(=O)(=O)N2CCC(C(=O)O)CC2)cc1C(=O)O` [CBK092181], for which the “% of control remaining” value turned out to be 116.47%.

As for `Cc1c(C(N)=O)sc2nc(C(F)(F)F)cc(N)c12` [CBK061693], the “% of control remaining” value amounted to 99.0258%.

On to `Cc1cc(C(=O)N(C)CC2(C)COC2)nc2ccccc12` [CBK281956], for which the “% of control remaining” value is on record as 135.243%.

On to `CC(=O)Nc1ccc(NCc2nc(C(C)C)no2)c(C(F)(F)F)c1` [CBK305743], for which the “% of control remaining” value amounted to 99.1443%.

`COc1ccc(NC(=O)C2CC(=O)NC3=C2C(=O)CC(c2ccco2)C3)cc1` (stereo not drawn) [CBK270282]: the “% of control remaining” value turned out to be 114.063%.

Consider `CC(=O)Nc1ccc(NC(=O)CCCC(=O)O)cc1` [CBK260984], for which the “% of control remaining” value was determined as 118.942%.

In the case of `O=c1[nH]c2ncc(-c3cccc4ncccc34)nc2n1Cc1ccccc1` [CBK064245], the “% of control remaining” value is 105.606%.

`N=C1/C(=C/c2cn(Cc3ccccc3)c3ccccc23)C(=O)N=C2SC(COc3ccccc3)=NN12` [CBK264150]: the “% of control remaining” value came out at 90.509%.

`Cc1ccc(CNc2nc3c(c(=O)[nH]c(=O)n3C)n2CC(O)COC(C)C)cc1` (stereo not drawn) [CBK139849]: the “% of control remaining” value worked out at 148.247%.

Consider `Cc1nc(N/C(=N/C(=O)c2ccccc2)NC(=O)c2ccccc2)nc2ccccc12` [CBK262529], for which the “% of control remaining” value is on record as 113.915%.

Regarding `O=[N+]([O-])c1ccc(N2CCN(CCO)CC2)cc1NCc1ccccc1` [CBK042200], the “% of control remaining” value was found to be 115.973%.

For `Cc1cc2nc(N3CCN(C(=O)c4ccc(C#N)cc4)CC3)sc2cc1C` [CBK287737], the “% of control remaining” value came to 117.371%.

As to `COc1ccc(/C(N)=N/OC(=O)CN(C)S(=O)(=O)c2ccccc2)cc1` [CBK267683], the “% of control remaining” value came out at 132.048%.

Turning to `OCCn1ncc2c(Nc3cccc(Cn4cncn4)c3)ncnc21` [CBK305965], the “% of control remaining” value turned out to be 109.371%.

Turning to `N#CCCCN1CCCN(c2cc(OCC3COc4ccccc4O3)ncn2)CC1` (stereo not drawn) [CBK083391T], the “% of control remaining” value was determined as 140.184%.

On to `CC1CCN(c2ccc([N+](=O)[O-])c(N3CCC(C)CC3)c2)CC1` [CBK001367], for which the “% of control remaining” value turned out to be 119.937%.

In the case of `CC(=O)N1CC[C@@H](CC(=O)O)[C@@H](CC2=NCCc3ccc(C(C)(C)C)cc32)C1` [CBK289165], the “% of control remaining” value was 139.071%.

As for `COc1ccccc1CN(CC(C)(C)CN)C(=O)NCc1ccc(F)cc1` [CBK002470C], the “% of control remaining” value amounted to 88.8648%.

`CN(C)c1ccc(-c2ncnn2CC(F)(F)F)cn1` [CBK307215]: the “% of control remaining” value came to 70.0881%.

Turning to `O=C(Cc1cc(F)cc(F)c1F)N1CCC(Sc2ccc(-c3ccccc3)cc2)CC1` [CBK131952], the “% of control remaining” value was determined as 103.188%.

With `Cc1ccc2cc(COC(=O)c3ccc(N4CCOCC4)nc3)c(Cl)nc2c1` [CBK295336], the “% of control remaining” value was 150.713%.

`Cc1nn(C)cc1S(=O)(=O)N1CCC(c2cccc(Cc3ccccc3Cl)n2)CC1` [CBK286115]: the “% of control remaining” value is 92.4584%.

As for `CCCC/C=C/c1cnc2[nH]c(=O)n(CCc3cccnc3)c2n1` [CBK064496], the “% of control remaining” value was 146.747%.

In the case of `CC1CCc2c(sc3ncnc(NC4CCN(CC(N)=O)CC4)c23)C1` (stereo not drawn) [CBK305008], the “% of control remaining” value is listed as 101.544%.

For `O=C(C1CCCCC1)N1CCCC(c2cc3cccnc3[nH]2)C1` (stereo not drawn) [CBK284938], the “% of control remaining” value was found to be 88.9809%.

Take `Cn1c(=O)c2[nH]c(N3CCCCC3)nc2n(C)c1=O` [CBK027630]: the “% of control remaining” value is recorded as 87.5009%.

`Cc1nc(CN2C(=O)CC(Cc3cnn(C)c3)C2=O)nc2ccccc12` (stereo not drawn) [CBK305415]: the “% of control remaining” value stood at 117.04%.

With `Cc1nc(Nc2ccc(Cl)cc2)nc(OC2CCNCC2)n1` [CBK024848], the “% of control remaining” value is 132.192%.

As for `Cc1ccc(C(=O)/C=C\Nc2ccc(S(=O)(=O)Nc3cc(C)nc(C)n3)cc2)cc1` [CBK264384], the “% of control remaining” value was 17.8492%.

With `NC(=O)C1CCN(CC(=O)Nc2cc(C(F)(F)F)ccc2Cl)CC1` [CBK269776], the “% of control remaining” value amounted to 120.642%.

With `COc1ccccc1Oc1ccc(NS(=O)(=O)c2cccc(C(=O)O)c2)cc1` [CBK296728], the “% of control remaining” value amounted to 137.247%.

For the molecule `O=C1CC[C@@H](NCc2cccc(O)c2)[C@H](c2cc(F)cc(F)c2)N1` [CBK282909], the “% of control remaining” value was found to be 107.875%.

Consider `O=C(Cc1cccs1)N1CCC(n2nc(C3CC3)ccc2=O)CC1` [CBK284243], for which the “% of control remaining” value amounted to 147.515%.

Regarding `c1cnc(OC2CCN(Cc3ccc4c(c3)OCO4)CC2)c(OCCN2CCOCC2)n1` [CBK082925T], the “% of control remaining” value is on record as 87.836%.

As to `O=C(NCCO)c1ccc(-c2cnc3[nH]c(=O)n(C4CCOCC4)c3n2)cc1` [CBK065041], the “% of control remaining” value stood at 87.9854%.

As for `CCC1(C)CC(C(N)=S)CCO1` (stereo not drawn) [CBK008954], the “% of control remaining” value is given as 128.336%.

As to `CCc1ccc(OCC(=O)c2ccc(O)c(CN(C)C)c2O)cc1` [CBK264438C], the “% of control remaining” value was 114.997%.

As for `Cc1cn2c(=O)c(C(=O)Nc3ccc(F)c(C(F)(F)F)c3)cnc2s1` [CBK287713], the “% of control remaining” value was 128.692%.

On to `CN(C)C(=O)Cc1ccc(-c2ccccc2)cc1` [CBK012162], for which the “% of control remaining” value was found to be 181.017%.

For the molecule `O=C(CN1C(=O)c2ccccc2C1=O)Nc1ccccc1C(=O)N1CCN(c2ccccc2)CC1` [CBK269251], the “% of control remaining” value stood at 112.064%.

Consider `Cc1ccc(C)c(OCC(=O)N(Cc2nc(-c3ccccc3)no2)C2CCCCC2)c1` [CBK269067], for which the “% of control remaining” value worked out at 111.861%.

Consider `Cc1ccsc1CN(Cc1cncn1C)CC(C)O` (stereo not drawn) [CBK283033], for which the “% of control remaining” value is given as 114.189%.

As to `COc1cccc(CC(=O)Nc2ncccc2C)c1` [CBK304982], the “% of control remaining” value is 125.47%.

For the molecule `O=C(O)CCc1nnc(S)n1Cc1ccccc1` [CBK286926], the “% of control remaining” value was found to be 114.071%.

For the molecule `CC(C)N1CNc2c(c(=O)nc(O)n2Cc2ccccc2)C1` [CBK291139], the “% of control remaining” value is 138.412%.

In the case of `c1cnn(CC2CCCCN2c2ncnc3ccsc23)c1` (stereo not drawn) [CBK304843], the “% of control remaining” value amounted to 116.965%.

In the case of `CCOC(=O)c1c(NC(=O)NCc2ccncc2)sc2c1CCC2` [CBK307591], the “% of control remaining” value is 136.075%.

On to `O=C(Nc1ccc(Cl)c(Cl)c1)c1cnc2sccn2c1=O` [CBK287449], for which the “% of control remaining” value amounted to 126.85%.

The values are drawn from article PMC12040169 (PLOS Biology, 2025).
